Reference: the supplement of paper PMC11732987, “Enantioselective OTUD7B fragment discovery through chemoproteomics screening and high-throughput optimisation” (Communications Chemistry, 2025)
This is one part of the list. The data scatter; read single values as rough.

Sequences of proteins named here, by UniProt entry; tags and fusion partners are left off. A change or cut given only in a name is not applied to a line headed by its entry.
UniProt Q09472: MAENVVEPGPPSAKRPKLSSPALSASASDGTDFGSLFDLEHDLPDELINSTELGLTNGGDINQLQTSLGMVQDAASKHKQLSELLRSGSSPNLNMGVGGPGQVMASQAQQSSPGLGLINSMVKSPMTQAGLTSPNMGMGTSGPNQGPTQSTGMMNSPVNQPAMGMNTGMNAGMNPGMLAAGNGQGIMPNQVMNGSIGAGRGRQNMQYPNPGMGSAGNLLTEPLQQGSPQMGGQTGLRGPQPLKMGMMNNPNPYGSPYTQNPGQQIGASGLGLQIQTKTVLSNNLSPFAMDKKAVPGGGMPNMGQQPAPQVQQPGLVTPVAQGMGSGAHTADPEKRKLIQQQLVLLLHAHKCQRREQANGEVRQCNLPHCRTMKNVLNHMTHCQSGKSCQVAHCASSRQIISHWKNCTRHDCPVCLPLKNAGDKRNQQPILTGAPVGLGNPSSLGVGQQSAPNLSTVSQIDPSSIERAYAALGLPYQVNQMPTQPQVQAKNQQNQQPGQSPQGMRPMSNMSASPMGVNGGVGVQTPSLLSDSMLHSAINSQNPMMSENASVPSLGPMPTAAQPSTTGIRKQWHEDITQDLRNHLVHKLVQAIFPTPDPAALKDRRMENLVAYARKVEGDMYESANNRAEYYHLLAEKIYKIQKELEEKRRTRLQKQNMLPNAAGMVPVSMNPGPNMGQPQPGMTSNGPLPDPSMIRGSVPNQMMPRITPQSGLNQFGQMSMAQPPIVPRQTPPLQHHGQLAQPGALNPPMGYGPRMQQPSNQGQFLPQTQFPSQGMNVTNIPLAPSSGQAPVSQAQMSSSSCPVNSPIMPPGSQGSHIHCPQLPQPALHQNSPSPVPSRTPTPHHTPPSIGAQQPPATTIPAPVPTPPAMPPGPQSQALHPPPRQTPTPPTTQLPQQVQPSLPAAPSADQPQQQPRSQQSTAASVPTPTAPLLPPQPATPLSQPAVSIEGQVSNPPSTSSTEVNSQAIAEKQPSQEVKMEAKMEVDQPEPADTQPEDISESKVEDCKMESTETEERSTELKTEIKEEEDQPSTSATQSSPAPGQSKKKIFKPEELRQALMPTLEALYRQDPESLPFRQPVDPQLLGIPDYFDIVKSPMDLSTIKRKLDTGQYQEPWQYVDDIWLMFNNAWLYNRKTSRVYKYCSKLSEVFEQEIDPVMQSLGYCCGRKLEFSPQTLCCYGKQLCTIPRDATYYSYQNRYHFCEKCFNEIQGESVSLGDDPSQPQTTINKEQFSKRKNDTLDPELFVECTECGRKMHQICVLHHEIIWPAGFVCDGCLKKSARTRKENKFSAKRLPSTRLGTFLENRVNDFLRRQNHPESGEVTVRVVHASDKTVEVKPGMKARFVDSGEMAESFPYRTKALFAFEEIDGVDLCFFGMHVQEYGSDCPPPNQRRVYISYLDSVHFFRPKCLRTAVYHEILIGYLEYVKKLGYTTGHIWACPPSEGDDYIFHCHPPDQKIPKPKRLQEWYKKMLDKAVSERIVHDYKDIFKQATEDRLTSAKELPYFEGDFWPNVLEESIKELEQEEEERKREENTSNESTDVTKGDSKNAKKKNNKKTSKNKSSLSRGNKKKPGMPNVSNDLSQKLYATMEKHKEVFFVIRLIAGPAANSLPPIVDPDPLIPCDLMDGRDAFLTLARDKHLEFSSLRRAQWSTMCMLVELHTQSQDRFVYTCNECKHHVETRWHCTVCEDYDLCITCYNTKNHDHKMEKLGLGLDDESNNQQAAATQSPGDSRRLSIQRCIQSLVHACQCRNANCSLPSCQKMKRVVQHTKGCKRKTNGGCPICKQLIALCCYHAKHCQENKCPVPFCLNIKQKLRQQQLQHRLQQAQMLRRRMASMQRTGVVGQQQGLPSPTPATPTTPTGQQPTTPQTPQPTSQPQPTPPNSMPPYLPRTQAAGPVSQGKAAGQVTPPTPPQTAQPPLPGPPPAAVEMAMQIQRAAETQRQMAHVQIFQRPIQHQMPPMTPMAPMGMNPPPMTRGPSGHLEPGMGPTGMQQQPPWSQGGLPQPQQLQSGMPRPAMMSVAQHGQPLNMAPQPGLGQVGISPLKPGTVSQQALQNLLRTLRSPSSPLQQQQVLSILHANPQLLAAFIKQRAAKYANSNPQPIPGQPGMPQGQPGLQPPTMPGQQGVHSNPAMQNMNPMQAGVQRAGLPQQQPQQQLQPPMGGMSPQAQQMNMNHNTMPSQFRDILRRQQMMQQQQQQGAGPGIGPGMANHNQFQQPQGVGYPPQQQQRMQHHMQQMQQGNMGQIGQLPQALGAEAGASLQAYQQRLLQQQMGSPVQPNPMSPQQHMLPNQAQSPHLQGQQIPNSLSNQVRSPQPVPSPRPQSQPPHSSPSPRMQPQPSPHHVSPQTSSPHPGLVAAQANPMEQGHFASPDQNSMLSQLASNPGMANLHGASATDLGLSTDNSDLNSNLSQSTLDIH

Each molecule was assayed against T1, EP300 C1204 (UniProt Q09472) (assay: log2 mean competition ratio of IA-DTB cysteine labelling (DMSO/compound) (log2 ratio); higher = stronger cysteine engagement by compound). Conditions: 50 µM; treatment time: 4 h; cell line lysate: HEK293T.
T1 sequence (whole entry): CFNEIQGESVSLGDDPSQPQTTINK
Protocol: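 IA-DTB competitive cysteine chemoproteomics in HEK293T RIPA lysate. Lysates were treated with compound 29 or 30 at 50 or 200 µM for 4 h, then IA-DTB (500 µM, 1 h), trypsin-digested, NeutrAvidin-enriched and analysed by diaPASEF. Competition ratio = intensity DMSO / intensity compound (n=4 treated, n=64 DMSO); binding: mean log2 CR ≥ 1 and p ≤ 0.05 plus QC filters. Target is the cysteine site.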

SMILES | log2 mean competition ratio
O=C(CCl)N[C@H]1CCCc2ccccc21 | -0.253
O=C(CCl)N[C@@H]1CCCc2ccccc21 | -0.329

Same assay, conditions: 200 µM; treatment time: 4 h; cell line lysate: HEK293T

SMILES | log2 mean competition ratio
O=C(CCl)N[C@H]1CCCc2ccccc21 | 0.126
O=C(CCl)N[C@@H]1CCCc2ccccc21 | -0.38
